Measured values: paper PMC4245242
Results are given in words; binding and its absence hold for the method and conditions named. For some assays here: Binding seen in cells or lysates may run through a third protein. Some entries that bind do so weakly or less than the wild type.

By UniProt entry, the sequences of proteins in these tests, tags left out. Residues count along the entry.
UniProt P70205, residues 21-496: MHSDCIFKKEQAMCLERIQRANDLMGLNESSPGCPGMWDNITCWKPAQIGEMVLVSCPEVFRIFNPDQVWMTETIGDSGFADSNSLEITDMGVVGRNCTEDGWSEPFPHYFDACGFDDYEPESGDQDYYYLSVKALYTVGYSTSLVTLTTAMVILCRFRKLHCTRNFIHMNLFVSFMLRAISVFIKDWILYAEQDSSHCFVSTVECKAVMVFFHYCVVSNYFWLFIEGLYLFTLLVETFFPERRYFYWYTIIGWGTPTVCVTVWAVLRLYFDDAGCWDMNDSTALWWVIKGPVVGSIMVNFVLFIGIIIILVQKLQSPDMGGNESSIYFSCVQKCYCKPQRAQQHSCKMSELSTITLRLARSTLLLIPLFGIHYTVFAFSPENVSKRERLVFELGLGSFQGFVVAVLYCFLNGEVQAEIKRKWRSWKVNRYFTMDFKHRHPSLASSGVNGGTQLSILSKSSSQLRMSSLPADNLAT

Assays:
[1] = target: PAC1, pituitary adenylate cyclase-activating polypeptide (PACAP)-preferring receptor, wild type, mouse Normal/Hop isoform (mouse) (UniProt P70205); assay: non-reducing SDS-PAGE and western blot; lysate of cells expressing PAC-YFP, SDS-PAGE under non-reducing conditions, blot with a goat polyclonal IgG against the C-terminus of PAC1; with or without NAC (10 nM)
[2] = target: PAC1, pituitary adenylate cyclase-activating polypeptide (PACAP)-preferring receptor, wild type, mouse Normal/Hop isoform (mouse) (UniProt P70205); assay: FRET or BRET; saturation BRET in CHO cells: constant amount of Rlu-tagged donor construct, increasing amounts of YFP-tagged acceptor construct, coelenterazine h 5 µM, 48 h after transfection; with or without NAC (10 nM, 2 h, 4°C)
[3] = target: PAC1, pituitary adenylate cyclase-activating polypeptide (PACAP)-preferring receptor, wild type, mouse Normal/Hop isoform (mouse) (UniProt P70205); assay: split reporter; BiFC read in a plate reader: CHO cells in 96-well plates co-transfected with the Y/N- and Y/C-tagged receptor, YFP fluorescence 48 h after transfection (excitation 480±30 nm, emission 535±40 nm); with or without NAC (10 nM, 2 h, 4°C)
[4] = target: PAC1, pituitary adenylate cyclase-activating polypeptide (PACAP)-preferring receptor, wild type, mouse Normal/Hop isoform (mouse) (UniProt P70205); assay: FRET or BRET; static BRET in CHO cells: a total of 1.0 µg of DNA per well divided equally among the constructs; background: signal between PAC-Rlu and soluble YFP; with or without NAC (10 nM)
[5] = target: PAC1, pituitary adenylate cyclase-activating polypeptide (PACAP)-preferring receptor, wild type, mouse Normal/Hop isoform (mouse) (UniProt P70205); assay: split reporter; BiFC seen by fluorescence and confocal microscopy: CHO cells co-transfected with the Y/N- and Y/C-tagged receptor, images 0, 0.5 and 2 h after serum withdrawal

binding [1]: binds
binding [2]: binds
binding [3]: binds
binding [4]: binds
binding [5]: binds
Substance: PAC1, pituitary adenylate cyclase-activating polypeptide (PACAP)-preferring receptor, wild type, mouse Normal/Hop isoform (from UniProt P70205 21-496)
